This note sets out measurements from PMC4591271.

This experiment concerns the target T1, endogenous SIRT1 of N1E-115 cells (mouse (endogenous in N1E-115)) (UniProt Q923E4).
T1 sequence: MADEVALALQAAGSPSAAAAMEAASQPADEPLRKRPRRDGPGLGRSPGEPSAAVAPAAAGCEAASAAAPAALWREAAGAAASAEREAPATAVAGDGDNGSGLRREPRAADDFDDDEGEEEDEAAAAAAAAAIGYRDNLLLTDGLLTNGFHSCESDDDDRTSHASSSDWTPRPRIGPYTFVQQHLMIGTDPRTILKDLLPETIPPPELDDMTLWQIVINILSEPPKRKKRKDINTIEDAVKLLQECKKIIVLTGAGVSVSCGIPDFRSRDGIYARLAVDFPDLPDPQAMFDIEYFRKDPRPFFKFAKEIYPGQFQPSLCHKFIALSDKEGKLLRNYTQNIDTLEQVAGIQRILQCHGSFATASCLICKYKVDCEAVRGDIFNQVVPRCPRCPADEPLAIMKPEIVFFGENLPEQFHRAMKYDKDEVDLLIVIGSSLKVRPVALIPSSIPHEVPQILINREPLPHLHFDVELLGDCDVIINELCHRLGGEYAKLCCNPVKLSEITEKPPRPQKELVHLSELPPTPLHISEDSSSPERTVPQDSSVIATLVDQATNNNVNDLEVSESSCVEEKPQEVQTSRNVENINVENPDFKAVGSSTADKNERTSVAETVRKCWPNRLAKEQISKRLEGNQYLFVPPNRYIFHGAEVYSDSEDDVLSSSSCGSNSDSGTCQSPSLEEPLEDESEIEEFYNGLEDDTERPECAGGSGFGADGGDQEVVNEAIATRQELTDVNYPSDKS
The experiment in a line: co-IP; N1E-115 cells transfected with Myc-NDPK-D; lysates immunoprecipitated with anti-SIRT1 antibody or control IgG, blotted with anti-Myc antibody.

Results are given in words; binding and its absence hold for the method and conditions named. Binding seen in cells or lysates may run through a third protein. Some results given as binding are weak or reduced against the parent protein; the word gives no strength. Tags and fused reporters may be left off the sequences shown.

B1: Myc-tagged NDPK-D (nucleoside diphosphate kinase D), expressed in N1E-115 cells (protein, UniProt O00746 29-187)
chain: GSGGPSWTRERTLVAVKPDGVQRRLVGDVIQRFERRGFTLVGMKMLQAPESVLAEHYQDLRRKPFYPALIRYMSSGPVVAMVWEGYNVVRASRAMIGHTDSAEAAPGTIRGDFSVHISRNVIHASDSVEGAQREIQLWFQSSELVSWADGGQHSSIHPA
On to B1, for which the binding result is recorded as “binds”.
